# Experimental data: patent US20230098202A1 (priority 2020, published 2023)
# Columns and labels:
# [1] = tested on: Alternaria alternata
# [2] = tested on: Puccinia sorghi; assay type: cell-based
# [3] = tested on: Alternaria solani; conditions: tomato plants, greenhouse, preventative spraying, Formulation 2
# [4] = tested on: Puccinia sorghi; assay: In planta validation: Puccinia sorghi infection of corn seedlings; assay type: in vivo, Puccinia sorghi on corn; conditions: controlled growth conditions, growth rooms, spraying
# Source text: Protocol name: Puccinia sorghi infection of corn seedlings test General description: Inoculation on corn, collection, Puccinia sorghi spores' suspension preparation and 1-phenyl-tetralin compounds 1 or 3 bioactivity evaluation against Puccinia sorghi.
# • 1) Use: 120×80×80 mm pots, standard garden soil with fertilizer and corn seeds of a rust sensitive variety. • 2) Put pots in a tray and fill the pots with the soil to the top. • 3) Make a small grove for the seeds. • 4) Plant about 10 seeds of corn in each pot. • 5) Cover the seeds with additional soil. • 6) Add water into the tray—about 100 ml for each pot (fill the tray 3 times). • 7) Grow the corn for 8 days in growth room at 22° C. (until the second leaf is emerged). B. Preparation of Spore Suspension [from Corn Leaves] for Inoculation • 1) Insert 20 infected corn leaves with spores into a sterile 50-ml tube. • 2) Add 50 ml of cold 0.05% Tween® 20 solution. • 3) Insert the tube into a sealed, ice cold plastic box. • 4) Shake the box using a shaker for 15 min at 3000 RPM. • 5) Transfer the suspension (without the leaves) into a clean sterile 50-ml tube. • 6) Filter the spore suspension through 16 layers of gauze into another sterile 50-ml tube. • 7) Keep the tube with the spore suspension on ice. • 8) Wash and concentrate the spores on a 5-micron membrane filter. […]
# [5] = tested on: Phytophthora infestans; conditions: tomato plants, greenhouse, spraying
# [6] = tested on: Phytophthora infestans; assay type: cell-based; conditions: Phytophthora infestans on tomato leaf discs; activity grade x repeats/12 x100
# [7] = tested on: Rhizoctonia solani; assay type: cell-based
# [8] = tested on: Fusarium oxysporum
# [9] = tested on: Pythium aphanidermatum; assay type: cell-based
# [10] = tested on: Botrytis cinerea; conditions: tomato plants, greenhouse, preventative spraying, Formulations 1 and 2
# [11] = tested on: Botrytis cinerea
smiles,measurement,setting,value
"CN[C@H]1CCC(c2ccc(Cl)c(Cl)c2)c2ccccc21.Cl (stereo in doubt) [Compound 3, (1S,4R)-4-(3,4-dichlorophenyl)-N-methyl-1,2,3,4-tetrahydronaphthalen-1-aminium chloride]",Relative Activity value (%),[1],100%
same,Relative Activity value (%),[2],100%
same,efficacy in controlling Alternaria infection,[3],up to 75.8%
same,efficacy in preventing and controlling Puccinia sorghi in corn plants (in words),[4],very good efficacy
same,efficacy in controlling Phytophthora infection,[5],up to 100%
same,Relative Activity value (%),[6],100%
same,Relative Activity value (%),[7],25%
same,Relative Activity value (%),[8],16%
same,Relative Activity value (%),[9],10%
same,efficacy in controlling Botrytis infection,[10],up to 100%
same,Relative Activity value (%),[11],100%
